Test results reported in US6693076.
No constants are given. Whether binding was seen depends on the method and setting. Some results given as binding are weak or reduced against the parent protein; the word gives no strength.

Protein sequences, listed by entry. Tags and fused reporters are not part of them. Residues count along the entry.
UniProt P24062, residues 31-1370: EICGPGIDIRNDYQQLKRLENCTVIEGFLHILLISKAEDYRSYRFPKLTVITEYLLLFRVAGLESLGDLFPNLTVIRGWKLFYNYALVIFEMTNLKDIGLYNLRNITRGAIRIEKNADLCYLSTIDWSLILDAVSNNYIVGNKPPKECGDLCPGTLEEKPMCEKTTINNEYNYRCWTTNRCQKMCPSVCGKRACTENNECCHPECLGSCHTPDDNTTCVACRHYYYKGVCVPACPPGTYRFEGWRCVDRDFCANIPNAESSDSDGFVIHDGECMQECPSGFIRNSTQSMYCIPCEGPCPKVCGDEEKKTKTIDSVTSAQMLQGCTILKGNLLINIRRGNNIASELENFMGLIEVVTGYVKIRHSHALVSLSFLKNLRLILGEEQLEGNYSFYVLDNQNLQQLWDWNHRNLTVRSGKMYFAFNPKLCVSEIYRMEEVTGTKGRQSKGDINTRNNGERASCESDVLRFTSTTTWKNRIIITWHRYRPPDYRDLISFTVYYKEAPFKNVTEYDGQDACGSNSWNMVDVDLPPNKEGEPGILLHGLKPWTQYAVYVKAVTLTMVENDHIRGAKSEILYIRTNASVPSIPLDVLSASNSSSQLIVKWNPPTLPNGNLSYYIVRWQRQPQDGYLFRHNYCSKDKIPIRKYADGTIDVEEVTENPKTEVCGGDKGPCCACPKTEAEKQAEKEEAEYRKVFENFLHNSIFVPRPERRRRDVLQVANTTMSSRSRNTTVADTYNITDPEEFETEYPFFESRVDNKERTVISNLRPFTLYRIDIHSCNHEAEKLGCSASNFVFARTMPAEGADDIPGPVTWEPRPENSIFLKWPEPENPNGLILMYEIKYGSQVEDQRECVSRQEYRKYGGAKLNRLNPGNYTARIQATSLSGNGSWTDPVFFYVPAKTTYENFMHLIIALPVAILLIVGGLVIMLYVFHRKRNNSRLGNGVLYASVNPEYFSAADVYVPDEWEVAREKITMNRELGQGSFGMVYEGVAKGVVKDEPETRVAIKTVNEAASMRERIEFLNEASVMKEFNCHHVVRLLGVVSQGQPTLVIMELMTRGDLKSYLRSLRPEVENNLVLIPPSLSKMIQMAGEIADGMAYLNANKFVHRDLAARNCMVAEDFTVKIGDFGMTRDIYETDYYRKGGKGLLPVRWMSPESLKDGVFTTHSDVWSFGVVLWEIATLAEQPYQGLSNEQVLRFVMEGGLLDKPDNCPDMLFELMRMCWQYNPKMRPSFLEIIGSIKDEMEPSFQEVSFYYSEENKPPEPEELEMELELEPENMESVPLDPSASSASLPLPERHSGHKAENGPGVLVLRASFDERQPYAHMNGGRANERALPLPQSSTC

Biological target: IGF-I receptor in homogenized adult rat brain tissue (cerebral cortex and cerebellum) (rat) (UniProt P24062)
Assay: displacement of 125I-[Thr59]IGF-I from homogenised rat brain tissue

binding: binds
B1: IGF-I(24-41) (peptide)
peptide: YFNKPTGYGSSSRRAPQT
